# Values joined by “and” are separate entries in the source; they are usually repeats but may differ in a detail not shown here. Equal values may be shown once. About 7,500 (2.1%) of roughly 360,000 compounds were called active. Inconclusive means that the source gave no clear call. Such entries were picked first, then a sample of the others. The call rests on the fitted dose curve; in most records, active means well fitted inhibition curve with a large enough effect; inconclusive means small, poorly fitted or top-dose-only effect, or effect the other way; inactive means flat fitted curve, though single readings scatter. Potencies of inconclusive entries are doubtful fits and often do not repeat.
# Assay: Nrf2 qHTS screen for inhibitors; further: nearly all actives have a fitted effect of over 60% in size
# Conditions: A549 ARE-Fluc reporter, luciferase luminescence, 18-24 h; activity change, negative = inhibition: at 46 µM (top of the series)
# Summary of the method: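 A549 ARE_Fluc cells (5000/well, 5% FBS OPTI-MEM) pre-incubated 2 h, then treated with compounds 18-24 h at 37C/5% CO2 in concentration-response. CellTiter-Fluor viability read first; BugLite luciferase luminescence after 15 min at room temperature gives Nrf2 activity.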
# On the % scale 0 is the no-effect control and ±100 the full control effect; potency means the concentration at half of the fitted maximal effect.
SMILES,Potency,"activity change, negative = inhibition"
CCOC(=O)c1c(C(=O)OCC)c(C)n(CCc2ccc(OC)c(OC)c2)c1C,"inconclusive: 23.1 µM [falling, partial curve, poor fit]",
Cn1c(=O)c2c(nc(NCc3ccco3)n2C/C=C/c2ccccc2)n(C)c1=O,active: 4.11 µM,
COC(=O)c1sccc1NC(=O)/C=C/c1ccc(Cl)cc1Cl,"inconclusive: 23.1 µM [activator, partial curve, poor fit]",
COc1ccc(/C=N/Nc2nc3ccccc3o2)cc1O,"inconclusive: 4.61 µM [activator, full curve]",
COc1cc(S(=O)(=O)NCc2ccncc2)c(OC)cc1C,"inconclusive: 16.4 µM [falling, single point]",
C=CCNC(=S)Nc1cccc([N+](=O)[O-])c1,"inconclusive: 1.84 µM [falling, partial curve]",
COC(=O)C1=C(C)NC(=O)/C1=C\c1cc(C)n(-c2ccccc2C)c1C,"inconclusive: 23.1 µM [falling, partial curve, poor fit]",
O=C1NC(c2ccccc2)=C(c2nc3ccccc3s2)C(c2ccc(O)cc2)N1 (centres undefined),"inconclusive: 29.1 µM [falling, single point]",
COc1ccccc1Nc1nc(N2CCOCC2)nc(N2CCOCC2)n1,"inconclusive: 14.6 µM [falling, partial curve, poor fit]",
Fc1ccccc1-n1ncc2c1ncn1nc(-c3ccccc3Cl)nc21,"inconclusive: 0.58 µM [activator, full curve]",
CC1CCCCN1CCCNC(=O)c1[nH]c2ccccc2c1Sc1ccc(Cl)cc1 (centres undefined),,inactive: -20.9%
CCCC[C@H](CN[C@@H](CNC)[C@H](C)CC)NCCC12CCC(CC1)C2,,inactive: 7.04%
CC(NC(=O)c1ccnc(C(C)(C)C)c1)c1ccccc1 (centres undefined),"inconclusive: 29.1 µM [falling, single point]",
Cc1ccc(NC(=O)CSCc2n[nH]c(=O)[nH]2)c(Br)c1,"inconclusive: 25.9 µM [activator, partial curve, poor fit]",
O=C(Nc1nc2ccc(F)cc2s1)c1cccs1,"inconclusive: 1.03 µM [activator, full curve, poor fit]",
CC(=O)c1ccc(-c2nc3ccccc3n2C)o1,"inconclusive: 2.59 µM [activator, full curve] and inconclusive: 4.61 µM [activator, partial curve, poor fit]",
Cc1cc2c(cc1S(=O)(=O)CCC(=O)N1CCCC(C)C1)OCC(=O)N2 (centres undefined),,inactive: -15.7%
COc1ccc(Cc2nnc(NC(=O)c3cccc([N+](=O)[O-])c3C)s2)cc1,,inactive: 10.6%
C=CCc1c(NCCO)nc(C)[nH]c1=O,"inconclusive: 11.6 µM [falling, partial curve]",
COc1ccc(C2N(c3ccc(Cl)cc3)N=C(C(C)=O)N(C)N2C(C)=O)cc1 (centres undefined),"inconclusive: 29.1 µM [falling, single point]",
COc1ccc(C(C)=O)cc1COC(=O)c1ccc2c(c1)OCCO2,,inactive: -3.26%
CN(C(=O)COC(=O)/C=C/c1ccc2ccccc2n1)c1c(N)n(Cc2ccccc2)c(=O)[nH]c1=O,"inconclusive: 25.9 µM [falling, single point]",

SMILES,Potency,"activity change, negative = inhibition"
COc1ccc(C2CC(c3ccccc3)=NN2C(=O)COC(=O)c2ccc(Cl)nc2)cc1 (centres undefined),"inconclusive: 0.82 µM [activator, full curve, poor fit]",
COCC(C)NCC(=O)NC(C)CCc1ccccc1 (centres undefined),,inactive: -8.83%
CCc1ccc(Nc2nnc(SCC(=O)NC(=O)c3cccn3C)s2)cc1,"inconclusive: 5.8 µM [falling, partial curve, poor fit]",
Cc1c(Cl)cccc1NC(=O)Cn1cc(C(=O)C2CCCCC2)c2ccccc21,active: 2.91 µM,
CCSc1ncc(Cl)c(C(=O)Nc2ccc(S(=O)(=O)N3CCC(C)CC3)cc2)n1,"inconclusive: 1.84 µM [falling, partial curve, poor fit]",
Cc1ccc(NC(=O)CCC(=O)NNC(=O)COc2cccc3ccccc23)c(C)c1,"inconclusive: 6.51 µM [activator, partial curve, poor fit]",
O=C(CSCC(=O)N1CCN(c2ccccc2)CC1)Nc1nc(-c2ccc(Cl)s2)cs1,"inconclusive: 20.6 µM [falling, single point]",
Cc1ccc(Nc2c(F)c(F)c(F)c(F)c2C(=O)O)c(C)c1,"inconclusive: 14.6 µM [falling, partial curve, poor fit]",
COc1ccc(-n2ncc3c(N4CCC(C)CC4)ncnc32)cc1,"inconclusive: 2.31 µM [activator, partial curve, poor fit]",
Cc1sc2nc(CN3CCN(c4ccc(O)cc4)CC3)[nH]c(=O)c2c1C,"inconclusive: 29.1 µM [falling, single point]",
CCOC(=O)c1cc2sccc2n1CC(=O)N1CCCc2ccccc21,"inconclusive: 32.6 µM [falling, single point]",
O=C(c1ccccc1)c1ccc(OCCn2cnc3ccccc3c2=O)cc1,"inconclusive: 29.1 µM [falling, single point]",
O=C(Nc1ccccc1N1CCN(C(=O)c2ccccc2)CC1)c1cc(Br)ccc1Cl,"inconclusive: 1.64 µM [falling, partial curve, poor fit]",
O=C(NCCN1CCOCC1)c1ccc(/C=C2\Sc3ccccc3N(Cc3ccccc3F)C2=O)cc1,,inactive: -3.64%
Cc1ccc2nc(SC(C(=O)Nc3ccc(F)cc3)c3ccccc3)[nH]c2c1 (centres undefined),"inconclusive: 23.1 µM [falling, single point]",
CCn1cc(Cl)c(C(=O)Nc2cccc(C(F)(F)F)c2)n1,"inconclusive: 18.4 µM [activator, partial curve]",
CCc1ccc(-c2cc(C(=O)Nn3cnnc3)c3ccccc3n2)cc1,active: 9.2 µM,
Cc1cccc(OC2(c3ccccc3)OC(=O)c3ccccc32)c1C (centres undefined),"inconclusive: 18.4 µM [falling, partial curve, poor fit]",
COc1ccc(/C=C2\SC(=O)N(CCNC(=O)Cn3cnnn3)C2=O)cc1,"inconclusive: 3.26 µM [activator, full curve]",
Cc1cc(C)cc(OCC(=O)Nc2nc(-c3cccnc3)cs2)c1,"inconclusive: 25.9 µM [falling, partial curve]",
Cn1c(CCN2CCOCC2)nc2cc(NC(=O)c3cccs3)ccc21,"inconclusive: 16.4 µM [falling, partial curve, poor fit]",
O=C(Nc1nnc(-c2ccc(F)cc2)o1)c1cccc([N+](=O)[O-])c1,"inconclusive: 20.6 µM [falling, single point]",

SMILES,Potency,"activity change, negative = inhibition"
O=C(c1ccc2c(c1)CCN2S(=O)(=O)c1ccccc1)N1CCN(c2cccc(Cl)c2)CC1,"inconclusive: 23.1 µM [falling, single point]",
Cc1cc(=O)oc2cc(OCC(=O)OCC(=O)Nc3ccc(C(C)C)cc3)ccc12,"inconclusive: 25.9 µM [activator, single point]",
COCC(=O)N(Cc1cc2cc(OC)ccc2[nH]c1=O)c1ccc(C)cc1,,inactive: -10.7%
C#CCn1c(=NC(=O)c2ccco2)sc2cccc(Cl)c21,,inactive: 5.44%
CCc1ccc(CNC(=O)c2cc3c(=O)n(CC)c4ccccc4c3s2)cc1,"inconclusive: 8.2 µM [falling, partial curve, poor fit]",
COc1cc(S(=O)(=O)N(C)C)ccc1Br,,inactive: 13.7%
CCc1nc(SCc2ccccc2)n[nH]1,"inconclusive: 20.6 µM [activator, single point]",
CC(=O)NNC(=S)NC(=O)C(c1ccccc1)c1ccccc1,active: 16.4 µM,
Cc1cc(-n2nc(C)cc2C)n2ncc(-c3ccccc3)c2n1,"inconclusive: 18.4 µM [activator, partial curve]",
COC(=O)c1cc(NC(=O)C2CCCN(S(=O)(=O)c3c(C)n[nH]c3C)C2)cc(C(=O)OC)c1 (centres undefined),"inconclusive: 3.26 µM [activator, partial curve, poor fit]",
COc1cc(C#N)c(N=C(SCC#N)N2CCOCC2)cc1OC,"inconclusive: 8.2 µM [falling, partial curve]",
COc1cccc(C(=O)NCCC2=CCCCC2)c1OC,"inconclusive: 5.8 µM [activator, partial curve]",
CCOC(=O)c1c(C)nc(-c2ccccc2)nc1N,"inconclusive: 0.651 µM [activator, full curve, poor fit]",
Cc1c(P(=O)(c2ccccc2)c2ccccc2)c2ccccc2n1C,,inactive: 3.37%
C=CC[C@@H](CC(=O)N[C@H](CO)Cc1ccccc1)C(=O)N[C@@H](COC(=O)[C@H](CC=C)CC(=O)OC(C)(C)C)Cc1ccccc1,"inconclusive: 18.4 µM [falling, partial curve, poor fit]",
O=C(NC(=S)NCC1CCCO1)c1ccc(Cl)cc1Cl (centres undefined),"inconclusive: 11.6 µM [activator, partial curve, poor fit]",
COc1ccc(-c2csc(Nc3ccc(S(N)(=O)=O)cc3)n2)cc1,"inconclusive: 32.6 µM [falling, single point]",
O=C(NOCc1ccccc1)OCc1ccccc1,"inconclusive: 16.4 µM [activator, partial curve]",
CN(C)c1ccc(C(=O)N2CCCC(N3CCN(Cc4ccc5c(c4)OCO5)CC3)C2)cc1 (centres undefined),"inconclusive: 23.1 µM [falling, partial curve, poor fit]",
CCOc1ccc(/C(CCC(=O)O)=N/NC(=S)NCCc2ccccc2)cc1,"inconclusive: 14.6 µM [falling, partial curve]",

# Sorted by number of heavy atoms (ascending): some entries from above
SMILES,Potency,"activity change, negative = inhibition"
CC(=O)c1ccc(-c2nc3ccccc3n2C)o1,"inconclusive: 2.59 µM [activator, full curve] and inconclusive: 4.61 µM [activator, partial curve, poor fit]",
O=C(NOCc1ccccc1)OCc1ccccc1,"inconclusive: 16.4 µM [activator, partial curve]",
C#CCn1c(=NC(=O)c2ccco2)sc2cccc(Cl)c21,,inactive: 5.44%
Cc1cc(C)cc(OCC(=O)Nc2nc(-c3cccnc3)cs2)c1,"inconclusive: 25.9 µM [falling, partial curve]",

# — PubChem BioAssay AID504444 (National Center for Advancing Translational Sciences (NCATS), 2011)
